Experimental data taken from the supplement of paper PMC10849652.
This is one part of the list.

By UniProt entry, the sequences of proteins in these tests, tags left out. Where a name states a change or a piece, a line headed by the entry shows the natural chain unless it says otherwise.
UniProt P15927: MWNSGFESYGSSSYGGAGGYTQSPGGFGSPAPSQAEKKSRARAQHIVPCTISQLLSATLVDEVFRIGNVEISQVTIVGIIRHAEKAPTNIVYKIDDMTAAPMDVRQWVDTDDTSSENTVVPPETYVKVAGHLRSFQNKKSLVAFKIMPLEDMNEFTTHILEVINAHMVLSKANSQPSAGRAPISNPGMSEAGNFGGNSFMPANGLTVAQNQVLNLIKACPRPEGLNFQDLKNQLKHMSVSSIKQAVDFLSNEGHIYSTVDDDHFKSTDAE
UniProt P05387, whole entry, looked up: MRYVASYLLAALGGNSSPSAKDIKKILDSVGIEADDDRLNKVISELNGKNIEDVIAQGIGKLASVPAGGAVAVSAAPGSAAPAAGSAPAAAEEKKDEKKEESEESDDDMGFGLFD
UniProt P23921: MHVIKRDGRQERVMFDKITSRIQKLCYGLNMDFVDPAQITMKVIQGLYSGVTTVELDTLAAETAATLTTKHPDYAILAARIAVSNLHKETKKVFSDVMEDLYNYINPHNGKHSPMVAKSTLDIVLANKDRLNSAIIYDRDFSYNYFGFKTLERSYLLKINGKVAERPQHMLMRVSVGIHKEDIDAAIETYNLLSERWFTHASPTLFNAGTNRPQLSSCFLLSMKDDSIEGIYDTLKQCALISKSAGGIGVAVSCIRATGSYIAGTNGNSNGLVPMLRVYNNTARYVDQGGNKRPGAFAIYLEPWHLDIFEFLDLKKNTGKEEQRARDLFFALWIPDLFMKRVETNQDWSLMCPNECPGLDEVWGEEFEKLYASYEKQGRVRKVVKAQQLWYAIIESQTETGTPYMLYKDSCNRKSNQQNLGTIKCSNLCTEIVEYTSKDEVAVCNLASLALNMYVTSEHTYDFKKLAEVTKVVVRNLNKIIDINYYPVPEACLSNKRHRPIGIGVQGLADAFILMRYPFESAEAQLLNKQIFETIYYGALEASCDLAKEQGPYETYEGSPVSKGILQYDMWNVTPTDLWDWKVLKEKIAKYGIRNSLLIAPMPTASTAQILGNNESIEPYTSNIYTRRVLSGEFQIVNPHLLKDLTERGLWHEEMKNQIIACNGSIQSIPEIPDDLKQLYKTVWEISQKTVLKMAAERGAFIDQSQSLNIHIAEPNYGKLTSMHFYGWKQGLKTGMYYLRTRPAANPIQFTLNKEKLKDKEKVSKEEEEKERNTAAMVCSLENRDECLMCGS
UniProt Q96BH1: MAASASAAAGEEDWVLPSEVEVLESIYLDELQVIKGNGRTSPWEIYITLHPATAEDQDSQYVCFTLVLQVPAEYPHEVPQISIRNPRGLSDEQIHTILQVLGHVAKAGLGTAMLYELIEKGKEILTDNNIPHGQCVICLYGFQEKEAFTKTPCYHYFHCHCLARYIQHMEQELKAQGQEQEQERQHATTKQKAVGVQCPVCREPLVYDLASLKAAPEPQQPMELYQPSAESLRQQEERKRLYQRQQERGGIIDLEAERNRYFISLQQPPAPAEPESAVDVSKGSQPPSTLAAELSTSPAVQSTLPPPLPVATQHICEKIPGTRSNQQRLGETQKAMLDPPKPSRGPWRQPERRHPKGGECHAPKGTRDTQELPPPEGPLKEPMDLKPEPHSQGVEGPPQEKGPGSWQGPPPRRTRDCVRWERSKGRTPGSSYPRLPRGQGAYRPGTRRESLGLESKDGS
UniProt O43148, whole entry, looked up: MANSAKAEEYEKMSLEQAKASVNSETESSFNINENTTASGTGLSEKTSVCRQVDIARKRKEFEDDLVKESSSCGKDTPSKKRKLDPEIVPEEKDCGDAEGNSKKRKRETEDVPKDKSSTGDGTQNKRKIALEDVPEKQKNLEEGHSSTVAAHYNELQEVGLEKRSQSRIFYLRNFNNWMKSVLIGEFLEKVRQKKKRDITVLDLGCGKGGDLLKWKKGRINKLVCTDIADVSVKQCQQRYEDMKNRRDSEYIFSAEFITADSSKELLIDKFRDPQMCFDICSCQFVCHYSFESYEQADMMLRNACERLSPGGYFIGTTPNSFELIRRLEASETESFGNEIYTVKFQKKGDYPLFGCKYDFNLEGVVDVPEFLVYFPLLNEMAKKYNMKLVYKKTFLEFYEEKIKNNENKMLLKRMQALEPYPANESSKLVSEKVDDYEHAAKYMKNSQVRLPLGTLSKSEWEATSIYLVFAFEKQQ
UniProt P78346: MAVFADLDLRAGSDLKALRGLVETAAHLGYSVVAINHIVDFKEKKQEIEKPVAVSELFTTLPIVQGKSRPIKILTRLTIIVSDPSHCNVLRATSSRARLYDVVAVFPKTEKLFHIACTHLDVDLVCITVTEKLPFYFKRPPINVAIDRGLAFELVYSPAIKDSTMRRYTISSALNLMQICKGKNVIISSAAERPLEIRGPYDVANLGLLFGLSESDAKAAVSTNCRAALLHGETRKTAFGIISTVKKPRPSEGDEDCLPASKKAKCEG
UniProt Q9P2E9: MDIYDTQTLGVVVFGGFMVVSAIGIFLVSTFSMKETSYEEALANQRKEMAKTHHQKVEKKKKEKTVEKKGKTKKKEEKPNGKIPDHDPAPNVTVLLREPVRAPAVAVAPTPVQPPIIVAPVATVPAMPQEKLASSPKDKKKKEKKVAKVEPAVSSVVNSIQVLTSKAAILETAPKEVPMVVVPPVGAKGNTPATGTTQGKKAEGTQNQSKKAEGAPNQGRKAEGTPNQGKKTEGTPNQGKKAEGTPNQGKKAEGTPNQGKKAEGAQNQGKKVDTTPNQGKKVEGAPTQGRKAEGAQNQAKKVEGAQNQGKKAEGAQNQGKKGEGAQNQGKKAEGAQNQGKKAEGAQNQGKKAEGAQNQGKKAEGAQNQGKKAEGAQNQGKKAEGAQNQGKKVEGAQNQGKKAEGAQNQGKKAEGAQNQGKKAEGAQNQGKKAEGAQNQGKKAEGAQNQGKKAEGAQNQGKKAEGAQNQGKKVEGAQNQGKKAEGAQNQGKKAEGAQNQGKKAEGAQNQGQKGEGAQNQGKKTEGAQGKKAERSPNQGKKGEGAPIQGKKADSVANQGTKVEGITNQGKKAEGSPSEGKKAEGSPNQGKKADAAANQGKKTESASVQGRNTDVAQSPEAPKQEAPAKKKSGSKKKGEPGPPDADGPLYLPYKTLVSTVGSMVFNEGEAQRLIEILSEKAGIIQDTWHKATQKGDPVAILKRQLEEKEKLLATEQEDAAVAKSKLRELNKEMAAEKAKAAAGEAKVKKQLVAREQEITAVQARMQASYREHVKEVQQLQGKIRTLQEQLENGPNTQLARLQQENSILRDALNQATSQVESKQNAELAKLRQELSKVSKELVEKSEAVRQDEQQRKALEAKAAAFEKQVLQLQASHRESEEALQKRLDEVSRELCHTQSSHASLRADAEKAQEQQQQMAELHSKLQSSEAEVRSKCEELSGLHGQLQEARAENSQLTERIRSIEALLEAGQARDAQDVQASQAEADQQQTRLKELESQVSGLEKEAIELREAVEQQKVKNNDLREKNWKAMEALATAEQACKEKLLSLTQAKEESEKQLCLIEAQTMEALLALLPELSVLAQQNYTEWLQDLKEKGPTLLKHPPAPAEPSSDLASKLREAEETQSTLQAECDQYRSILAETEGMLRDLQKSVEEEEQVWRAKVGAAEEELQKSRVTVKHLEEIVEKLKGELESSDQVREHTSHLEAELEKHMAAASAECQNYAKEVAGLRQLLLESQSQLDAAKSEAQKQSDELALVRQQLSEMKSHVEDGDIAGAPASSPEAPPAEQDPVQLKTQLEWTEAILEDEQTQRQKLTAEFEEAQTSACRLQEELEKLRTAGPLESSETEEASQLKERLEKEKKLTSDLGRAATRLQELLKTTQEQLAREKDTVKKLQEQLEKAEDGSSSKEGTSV
UniProt Q8TA86: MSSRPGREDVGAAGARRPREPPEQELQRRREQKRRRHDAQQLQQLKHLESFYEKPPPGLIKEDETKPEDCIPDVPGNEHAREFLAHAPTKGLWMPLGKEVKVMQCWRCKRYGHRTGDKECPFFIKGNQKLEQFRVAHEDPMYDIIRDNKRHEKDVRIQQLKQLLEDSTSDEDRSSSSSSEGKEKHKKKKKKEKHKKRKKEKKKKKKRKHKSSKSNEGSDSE
UniProt Q01974, whole entry, looked up: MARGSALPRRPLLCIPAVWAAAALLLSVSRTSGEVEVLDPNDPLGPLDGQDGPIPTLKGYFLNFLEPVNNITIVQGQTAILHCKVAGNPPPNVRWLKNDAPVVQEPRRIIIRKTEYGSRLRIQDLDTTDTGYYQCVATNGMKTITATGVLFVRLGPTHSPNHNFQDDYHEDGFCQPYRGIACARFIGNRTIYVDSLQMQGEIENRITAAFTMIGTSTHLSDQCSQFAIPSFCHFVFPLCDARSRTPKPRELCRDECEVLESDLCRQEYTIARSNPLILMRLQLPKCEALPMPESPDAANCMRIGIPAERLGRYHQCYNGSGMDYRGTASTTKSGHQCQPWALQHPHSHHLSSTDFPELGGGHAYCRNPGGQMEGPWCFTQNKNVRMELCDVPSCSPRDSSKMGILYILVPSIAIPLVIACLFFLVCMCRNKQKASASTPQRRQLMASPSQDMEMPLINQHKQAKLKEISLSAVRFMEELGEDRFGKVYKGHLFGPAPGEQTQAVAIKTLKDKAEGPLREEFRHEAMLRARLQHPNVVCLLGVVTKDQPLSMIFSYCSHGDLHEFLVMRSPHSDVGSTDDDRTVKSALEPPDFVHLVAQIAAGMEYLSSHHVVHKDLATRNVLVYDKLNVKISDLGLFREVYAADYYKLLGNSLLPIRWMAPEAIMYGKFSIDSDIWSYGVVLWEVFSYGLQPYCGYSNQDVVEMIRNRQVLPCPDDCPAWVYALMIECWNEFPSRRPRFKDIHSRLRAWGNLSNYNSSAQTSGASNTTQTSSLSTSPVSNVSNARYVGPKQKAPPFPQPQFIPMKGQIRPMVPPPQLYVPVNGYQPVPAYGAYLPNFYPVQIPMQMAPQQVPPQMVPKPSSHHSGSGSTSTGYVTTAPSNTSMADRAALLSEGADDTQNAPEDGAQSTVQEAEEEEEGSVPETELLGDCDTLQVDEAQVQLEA
UniProt P27694, whole entry, looked up: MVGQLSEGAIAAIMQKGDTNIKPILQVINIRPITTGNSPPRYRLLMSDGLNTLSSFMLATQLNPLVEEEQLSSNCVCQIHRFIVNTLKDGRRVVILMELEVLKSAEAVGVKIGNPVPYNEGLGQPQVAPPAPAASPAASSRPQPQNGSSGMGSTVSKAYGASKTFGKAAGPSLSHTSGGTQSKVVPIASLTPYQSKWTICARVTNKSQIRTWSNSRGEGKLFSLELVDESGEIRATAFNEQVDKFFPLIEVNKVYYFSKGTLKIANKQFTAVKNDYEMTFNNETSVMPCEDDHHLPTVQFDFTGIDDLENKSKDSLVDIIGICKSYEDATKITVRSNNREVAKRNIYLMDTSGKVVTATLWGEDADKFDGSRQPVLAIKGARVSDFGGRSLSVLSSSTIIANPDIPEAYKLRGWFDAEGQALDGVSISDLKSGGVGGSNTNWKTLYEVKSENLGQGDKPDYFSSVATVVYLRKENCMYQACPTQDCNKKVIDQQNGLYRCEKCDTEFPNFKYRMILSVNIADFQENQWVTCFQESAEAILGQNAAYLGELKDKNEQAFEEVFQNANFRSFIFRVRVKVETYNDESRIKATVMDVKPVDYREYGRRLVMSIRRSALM
UniProt P13489: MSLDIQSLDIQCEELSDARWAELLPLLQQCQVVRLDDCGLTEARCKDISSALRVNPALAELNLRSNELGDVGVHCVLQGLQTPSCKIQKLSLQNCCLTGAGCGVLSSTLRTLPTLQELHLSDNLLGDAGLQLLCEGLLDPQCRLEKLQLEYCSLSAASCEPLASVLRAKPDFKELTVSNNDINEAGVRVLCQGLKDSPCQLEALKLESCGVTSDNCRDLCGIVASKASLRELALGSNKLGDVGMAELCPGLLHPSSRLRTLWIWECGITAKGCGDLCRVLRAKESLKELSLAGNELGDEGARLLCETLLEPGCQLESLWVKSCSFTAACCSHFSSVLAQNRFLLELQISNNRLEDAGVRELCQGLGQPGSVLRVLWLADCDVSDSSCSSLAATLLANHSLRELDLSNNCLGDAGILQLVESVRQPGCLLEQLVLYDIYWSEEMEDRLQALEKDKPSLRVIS
UniProt P23443: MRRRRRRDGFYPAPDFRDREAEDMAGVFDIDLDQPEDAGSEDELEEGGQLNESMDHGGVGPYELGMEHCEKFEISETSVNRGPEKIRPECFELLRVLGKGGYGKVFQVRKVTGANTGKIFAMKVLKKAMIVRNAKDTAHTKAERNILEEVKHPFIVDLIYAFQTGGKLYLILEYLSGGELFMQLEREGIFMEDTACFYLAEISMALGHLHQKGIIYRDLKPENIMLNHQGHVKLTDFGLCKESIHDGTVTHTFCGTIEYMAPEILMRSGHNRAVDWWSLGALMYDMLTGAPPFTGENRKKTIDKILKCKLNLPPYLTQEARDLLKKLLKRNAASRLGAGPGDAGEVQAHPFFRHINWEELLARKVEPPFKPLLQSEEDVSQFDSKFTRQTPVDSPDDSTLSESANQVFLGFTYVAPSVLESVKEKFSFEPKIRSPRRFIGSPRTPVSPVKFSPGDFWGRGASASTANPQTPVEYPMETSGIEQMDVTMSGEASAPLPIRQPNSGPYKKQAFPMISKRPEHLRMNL

Assays:
Test in all cases: log2 fold change, soluble protein after heating vs DMSO (PISA); higher = thermal stabilisation; K562 cells, 10 uM, 30 min; active = over 0.2 and 3.5 SD of the protein, either way, in both replicates (recomputed)
[1] = compound: CS(=O)(=O)c1ccc(-c2cnc(N)c(C(=O)Nc3ccccc3)n2)cc1
How it was run: (§1)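 K562 cells at 2×10^6 cells/mL were treated for 30 min with 10 μM compound, and aliquots were heated for 3 min over 48°C-58°C before pooling. Extraction used PBS with 0.5% NP-40 at 4°C, and soluble protein was the supernatant after 21,000xg for 90 min, measured by TMTpro 16plex LC-MS/MS with channel sums equalised. Thermal stability values, relative to control samples and from duplicates, are log2 fold changes.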

crizotinib = compound: C[C@@H](Oc1cc(-c2cnn(C3CCNCC3)c2)cnc1N)c1c(Cl)ccc(F)c1Cl [crizotinib]
How it was run: as §1

[2] = compound: C[C@@H]1COCCN1C2=NC(=NC(=C2)C3(CC3)S(=O)(=O)C)C4=C5C=CNC5=CC=C4
How it was run: as §1

[3] = compound: C[C@H](C1=CC=C(C=C1)C(=O)NC2=C3C=CNC3=NC=C2)N
How it was run: as §1

duvelisib = compound: C[C@H](Nc1ncnc2nc[nH]c12)c1cc2cccc(Cl)c2c(=O)n1-c1ccccc1 [duvelisib]
How it was run: as §1

gandotinib = compound: Cc1cc(Nc2cc(CN3CCOCC3)c3nc(C)c(Cc4ccc(Cl)cc4F)n3n2)n[nH]1 [gandotinib]
How it was run: as §1

tozasertib = compound: Cc1cc(Nc2cc(N3CCN(C)CC3)nc(Sc3ccc(NC(=O)C4CC4)cc3)n2)n[nH]1 [tozasertib]
How it was run: as §1

[4] = compound: Cc1cc(SCc2sc(-c3ccc(C(F)(F)F)cc3)nc2C)ccc1OCC(=O)O
How it was run: as §1

doramapimod = compound: Cc1ccc(-n2nc(C(C)(C)C)cc2NC(=O)Nc2ccc(OCCN3CCOCC3)c3ccccc23)cc1 [doramapimod]
How it was run: as §1

ispinesib = compound: Cc1ccc(C(=O)N(CCCN)[C@@H](c2nc3cc(Cl)ccc3c(=O)n2Cc2ccccc2)C(C)C)cc1 [ispinesib]
How it was run: as §1

Measured: log2 fold change

RPL32 (UniProt P62910)
inactive: [1] -0.108 | crizotinib 0.036 | [2] -0.801 | [3] 0.517 | duvelisib -0.298 | gandotinib 0.12 | tozasertib 0.043 | [4] 0.065 | doramapimod 0.207 | ispinesib -0.107

RPA2 isoform 3 (UniProt P15927)
inactive: [1] -0.011 | crizotinib 0.017 | [2] -0.097 | [3] 0.015 | duvelisib 0.056 | gandotinib 0.033 | tozasertib -0.004 | [4] 0.018 | doramapimod -0.051 | ispinesib -0.024

RPLP2 (UniProt P05387)
inactive: [1] -0.2 | crizotinib 0.105 | [2] -0.831 | [3] 0.559 | duvelisib -0.336 | gandotinib 0.377 | tozasertib 0.045 | [4] 0.062 | doramapimod 0.374 | ispinesib -0.291

RPS28 (UniProt P62857)
inactive: [1] -0.062 | crizotinib 0.014 | [2] -0.103 | [3] 0.099 | duvelisib -0.12 | gandotinib 0.055 | tozasertib -0.043 | [4] -0.062 | doramapimod 0.041 | ispinesib -0.068

RPL7A (UniProt P62424)
inactive: [1] -0.086 | crizotinib 0.058 | [2] -1.25 | [3] 0.531 | duvelisib -0.362 | gandotinib 0.417 | tozasertib 0.048 | [4] 0.038 | doramapimod 0.318 | ispinesib -0.204

RPL11 (UniProt P62913)
inactive: [1] -0.021 | crizotinib 0.06 | [2] -1.18 | [3] 0.572 | duvelisib -0.269 | gandotinib 0.528 | tozasertib 0.072 | [4] -0.001 | doramapimod 0.286 | ispinesib -0.2

RPL27A (UniProt P46776)
inactive: [1] -0.021 | crizotinib 0.054 | [2] -0.93 | [3] 0.477 | duvelisib -0.301 | gandotinib 0.356 | tozasertib 0.077 | [4] -0.027 | doramapimod 0.262 | ispinesib -0.257

RRM1 (UniProt P23921)
inactive: [1] 0.021 | crizotinib -0.051 | [2] 0.067 | [3] -0.045 | duvelisib 0.052 | gandotinib -0.098 | tozasertib -0.062 | [4] 0.01 | doramapimod -0.051 | ispinesib 0.058

RNF25 (UniProt Q96BH1)
inactive: [1] 0.008 | crizotinib 0.013 | [2] 0.078 | [3] 0.024 | duvelisib 0.047 | gandotinib -0.01 | tozasertib 0.014 | [4] 0.02 | doramapimod -0.006 | ispinesib -0.01

RPL10 (UniProt P27635)
inactive: [1] -0.028 | crizotinib 0.057 | [2] -0.684 | [3] 0.434 | duvelisib -0.276 | gandotinib 0.296 | tozasertib 0.103 | [4] 0.059 | doramapimod 0.337 | ispinesib -0.166

RNMT isoform 2 (UniProt O43148)
inactive: [1] -0.048 | crizotinib 0.038 | [2] -0.04 | [3] 0.138 | duvelisib -0.048 | gandotinib 0.051 | tozasertib -0.048 | [4] -0.019 | doramapimod 0.027 | ispinesib -0.041

RPL3 (UniProt P39023)
inactive: [1] -0.044 | crizotinib 0.066 | [2] -1.2 | [3] 0.665 | duvelisib -0.318 | gandotinib 0.393 | tozasertib 0.062 | [4] 0.097 | doramapimod 0.371 | ispinesib -0.27

RPP30 isoform 2 (UniProt P78346)
inactive: [1] -0.062 | crizotinib 0.04 | [2] -0.048 | [3] 0.012 | duvelisib -0.012 | gandotinib 0.123 | tozasertib -0.018 | [4] -0.128 | doramapimod 0.006 | ispinesib -0.016

RRBP1 (UniProt Q9P2E9)
inactive: [1] -0.067 | crizotinib 0.048 | [2] -0.588 | [3] 0.502 | duvelisib -0.209 | gandotinib 0.302 | tozasertib 0.059 | [4] -0.002 | doramapimod 0.29 | ispinesib -0.294

RP9 (UniProt Q8TA86)
inactive: [1] 0.074 | crizotinib 0.084 | [2] -0.216 | [3] 0.262 | duvelisib -0.064 | gandotinib 0.302 | tozasertib 0.028 | [4] -0.017 | doramapimod 0.076 | ispinesib -0.094

RPS8 (UniProt P62241)
inactive: [1] -0.047 | crizotinib 0.061 | [2] -0.551 | [3] 0.333 | duvelisib -0.225 | gandotinib 0.378 | tozasertib 0.048 | [4] 0.015 | doramapimod 0.246 | ispinesib -0.099

RPL17 isoform 3 (UniProt P18621)
inactive: [1] -0.053 | crizotinib 0.009 | [2] -0.704 | [3] 0.332 | duvelisib -0.199 | gandotinib 0.569 | tozasertib 0.039 | [4] 0.048 | doramapimod 0.277 | ispinesib -0.095

RPN1 (UniProt P04843)
inactive: [1] 0.015 | crizotinib -0.009 | [2] 0.054 | [3] -0.013 | duvelisib 0.032 | gandotinib -0.039 | tozasertib -0.003 | [4] 0.021 | doramapimod -0.001 | ispinesib -0.021

RPAP1 (UniProt Q9BWH6)
inactive: [1] 0.015 | crizotinib -0.086 | [2] 0.005 | [3] -0.023 | duvelisib 0.004 | gandotinib -0.083 | tozasertib 0 | [4] 0.052 | doramapimod -0.003 | ispinesib -0.035

ROR2 (UniProt Q01974)
inactive: [1] 0.028 | crizotinib 0.007 | [2] 0.081 | [3] -0.031 | gandotinib -0.007 | [4] 0.097 | doramapimod -0.04 | ispinesib 0.083

RPA1 (UniProt P27694)
inactive: [1] -0.028 | crizotinib -0.019 | [2] -0.199 | [3] 0.036 | gandotinib -0.103 | [4] 0.022 | doramapimod -0.05 | ispinesib 0.004

RNH1 (UniProt P13489)
inactive: [1] -0.004 | crizotinib -0.031 | [2] 0.091 | [3] -0.11 | duvelisib 0.021 | gandotinib -0.089 | tozasertib 0.027 | [4] 0.012 | doramapimod -0.019 | ispinesib 0.054

RPRD1B (UniProt Q9NQG5)
inactive: [1] -0.104 | crizotinib 0.072 | [2] 0.062 | [3] -0.042 | gandotinib -0.227 | [4] 0.062 | doramapimod -0.044 | ispinesib 0.039

RRAGB (UniProt Q5VZM2)
inactive: [1] 0.016 | crizotinib -0.131 | [2] 0.01 | [3] -0.123 | gandotinib -0.008 | [4] -0.011 | doramapimod 0.015 | ispinesib -0.065

RPS2 (UniProt P15880)
inactive: [1] -0.045 | crizotinib 0.043 | [2] -0.369 | [3] 0.286 | gandotinib 0.202 | [4] 0.007 | doramapimod 0.131 | ispinesib -0.162

Looked up one by one from above, 2 records:
RPL7A (UniProt P62424)
inactive: [1] -0.086 | crizotinib 0.058 | [2] -1.25 | [3] 0.531 | duvelisib -0.362 | gandotinib 0.417 | tozasertib 0.048 | [4] 0.038 | doramapimod 0.318 | ispinesib -0.204

RRM1 (UniProt P23921)
inactive: [1] 0.021 | crizotinib -0.051 | [2] 0.067 | [3] -0.045 | duvelisib 0.052 | gandotinib -0.098 | tozasertib -0.062 | [4] 0.01 | doramapimod -0.051 | ispinesib 0.058

Remaining list, next part

RPS6KB1 (UniProt P23443)
inactive: [1] 0 | crizotinib -0.109 | [2] 0.004 | [3] -0.009 | duvelisib 0 | gandotinib -0.151 | tozasertib -0.031 | [4] 0.039 | doramapimod -0.032 | ispinesib -0.041

RPL13A (UniProt P40429)
inactive: [1] -0.149 | crizotinib 0.113 | [2] -1.22 | [3] 0.654 | duvelisib -0.46 | gandotinib 0.369 | tozasertib 0.068 | [4] 0.041 | doramapimod 0.383 | ispinesib -0.292

RNF5 (UniProt Q99942)
inactive: [1] -0.043 | crizotinib -0.324 | [2] 0.147 | [3] -0.059 | gandotinib -0.069 | tozasertib 0.019 | doramapimod 0.053 | ispinesib -0.09
